Values quoted from earlier work as cited in patent publication US9585876B2 (NuSirt Sciences, Inc., priority 2013, dated 2017).
Some of these results come from one statement about several compounds together.

Details: oral dosing of about 50 mg; cited from earlier work

## NC(=O)c1ccc[n+]([C@@H]2O[C@H](CO)[C@@H](O)[C@H]2O)c1 [nicotinamide riboside]
  circulating level of nicotinic acid or nicotinamide riboside in a subject: 10 to 100 nM
